The values below come from the supplement of paper PMC7666118.

Protein sequences, listed by entry. Tags and fused reporters are not part of them. Lines headed by an entry give the natural chain unless they say otherwise; changes in a name come on top.
UniProt Q92597: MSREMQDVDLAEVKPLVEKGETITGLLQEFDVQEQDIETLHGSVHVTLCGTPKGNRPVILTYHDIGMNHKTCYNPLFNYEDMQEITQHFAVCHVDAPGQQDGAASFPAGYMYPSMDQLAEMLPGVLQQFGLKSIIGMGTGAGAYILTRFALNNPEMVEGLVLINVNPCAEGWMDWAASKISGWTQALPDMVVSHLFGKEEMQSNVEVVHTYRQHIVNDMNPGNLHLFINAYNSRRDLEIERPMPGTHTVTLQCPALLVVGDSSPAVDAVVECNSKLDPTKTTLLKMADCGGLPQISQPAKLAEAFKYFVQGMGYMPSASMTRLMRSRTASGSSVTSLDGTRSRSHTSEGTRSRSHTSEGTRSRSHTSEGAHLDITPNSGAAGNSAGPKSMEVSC
UniProt P03886, whole entry: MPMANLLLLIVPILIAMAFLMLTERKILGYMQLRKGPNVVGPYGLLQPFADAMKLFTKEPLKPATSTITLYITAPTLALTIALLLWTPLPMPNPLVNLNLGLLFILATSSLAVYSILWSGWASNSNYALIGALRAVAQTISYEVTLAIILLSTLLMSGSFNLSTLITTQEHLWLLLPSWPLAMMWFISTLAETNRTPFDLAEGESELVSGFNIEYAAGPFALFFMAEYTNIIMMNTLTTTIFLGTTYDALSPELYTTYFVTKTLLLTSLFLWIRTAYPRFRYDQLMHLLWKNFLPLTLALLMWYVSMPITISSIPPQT
UniProt Q9GZU8: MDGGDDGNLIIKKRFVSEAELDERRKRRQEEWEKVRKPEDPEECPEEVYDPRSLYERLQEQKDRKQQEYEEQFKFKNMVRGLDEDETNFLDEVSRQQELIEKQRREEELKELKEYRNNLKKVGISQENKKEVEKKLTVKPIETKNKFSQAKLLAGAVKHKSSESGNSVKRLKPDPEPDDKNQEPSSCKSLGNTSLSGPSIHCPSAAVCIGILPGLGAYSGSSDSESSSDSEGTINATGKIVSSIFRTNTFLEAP
UniProt Q9BXJ9: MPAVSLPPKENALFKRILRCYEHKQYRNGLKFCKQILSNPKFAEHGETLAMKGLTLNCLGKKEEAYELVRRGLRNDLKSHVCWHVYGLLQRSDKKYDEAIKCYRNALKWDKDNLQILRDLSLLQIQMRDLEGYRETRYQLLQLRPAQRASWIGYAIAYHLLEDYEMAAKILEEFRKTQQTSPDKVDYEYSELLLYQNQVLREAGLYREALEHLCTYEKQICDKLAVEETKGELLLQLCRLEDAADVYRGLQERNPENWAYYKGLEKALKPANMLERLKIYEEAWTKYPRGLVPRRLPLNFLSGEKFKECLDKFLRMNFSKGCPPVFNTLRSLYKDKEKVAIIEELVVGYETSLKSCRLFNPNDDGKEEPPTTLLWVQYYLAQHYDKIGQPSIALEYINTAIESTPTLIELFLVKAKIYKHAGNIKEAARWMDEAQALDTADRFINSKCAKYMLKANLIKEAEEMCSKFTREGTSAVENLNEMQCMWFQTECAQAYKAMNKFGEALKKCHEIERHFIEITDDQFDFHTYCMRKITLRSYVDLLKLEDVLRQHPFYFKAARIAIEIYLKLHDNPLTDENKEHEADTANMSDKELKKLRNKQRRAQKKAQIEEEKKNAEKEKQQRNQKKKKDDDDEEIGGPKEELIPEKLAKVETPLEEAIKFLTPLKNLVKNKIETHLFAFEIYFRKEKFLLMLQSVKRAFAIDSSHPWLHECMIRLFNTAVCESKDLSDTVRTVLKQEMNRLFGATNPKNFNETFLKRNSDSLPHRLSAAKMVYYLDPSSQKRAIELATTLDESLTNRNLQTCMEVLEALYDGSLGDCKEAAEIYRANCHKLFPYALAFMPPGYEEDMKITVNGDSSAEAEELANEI
UniProt Q9Y639: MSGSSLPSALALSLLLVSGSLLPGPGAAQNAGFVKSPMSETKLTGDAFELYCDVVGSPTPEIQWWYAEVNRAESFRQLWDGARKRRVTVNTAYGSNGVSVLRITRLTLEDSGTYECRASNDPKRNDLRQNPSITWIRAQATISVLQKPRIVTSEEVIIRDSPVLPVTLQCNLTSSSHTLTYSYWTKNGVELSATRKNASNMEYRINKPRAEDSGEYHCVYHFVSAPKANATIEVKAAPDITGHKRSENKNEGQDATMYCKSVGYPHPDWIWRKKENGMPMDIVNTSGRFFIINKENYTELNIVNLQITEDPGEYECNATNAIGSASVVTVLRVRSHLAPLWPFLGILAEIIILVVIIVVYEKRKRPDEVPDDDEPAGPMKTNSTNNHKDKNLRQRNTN
UniProt O95182, whole entry: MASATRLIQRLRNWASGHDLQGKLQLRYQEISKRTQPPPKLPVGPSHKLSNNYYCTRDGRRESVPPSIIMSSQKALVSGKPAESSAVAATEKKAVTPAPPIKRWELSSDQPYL
UniProt P03897, whole entry: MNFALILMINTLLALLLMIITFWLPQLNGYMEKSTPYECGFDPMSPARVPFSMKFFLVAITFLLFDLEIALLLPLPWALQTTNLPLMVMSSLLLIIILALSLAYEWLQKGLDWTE
UniProt Q9GZT8: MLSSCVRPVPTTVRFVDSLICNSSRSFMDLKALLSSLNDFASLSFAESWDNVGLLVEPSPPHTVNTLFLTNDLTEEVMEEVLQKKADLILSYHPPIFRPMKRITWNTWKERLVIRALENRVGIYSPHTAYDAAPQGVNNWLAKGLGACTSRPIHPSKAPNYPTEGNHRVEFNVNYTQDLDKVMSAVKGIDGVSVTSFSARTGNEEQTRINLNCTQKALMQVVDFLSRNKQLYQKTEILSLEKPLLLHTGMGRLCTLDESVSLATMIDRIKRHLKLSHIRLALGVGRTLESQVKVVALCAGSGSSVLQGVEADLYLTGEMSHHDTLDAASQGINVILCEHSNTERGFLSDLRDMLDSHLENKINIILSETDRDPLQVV
UniProt P51970, whole entry: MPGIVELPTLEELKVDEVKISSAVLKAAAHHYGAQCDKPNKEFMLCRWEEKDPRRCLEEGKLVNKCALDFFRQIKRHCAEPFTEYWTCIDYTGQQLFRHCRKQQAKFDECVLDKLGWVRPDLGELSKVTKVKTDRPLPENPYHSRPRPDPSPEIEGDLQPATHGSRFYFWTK

The other results are listed elsewhere or left out.

Compound in this experiment: COc1ccc(Cn2ccc3cc(C)c(C(=O)NO)cc32)cc1
The experiment is described as follows: dose-dependent thermal stabilisation call (2D-TPP, DLPTP, 10% FDR) (binary (1 = stabilised)); higher = stabilised by the compound. To be noted: system: HL-60 intact cells; concentration range 0.04-10 µM. On the procedure: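 2D thermal proteome profiling in intact HL-60 cells treated with BRD-3811 (0, 0.04, 0.29, 2, 10 uM) for 90 min at 37 C, then heated 3 min at one of 12 temperatures (42-63.9 C). Soluble protein was quantified by TMT10 MS. The value is the DLPTP call of the paper: dose-dependent thermal stabilisation over all temperatures at 10% FDR (F-test of a dose-response against a flat model); one experiment, one call per tested protein.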
With NDRG1 (UniProt Q92597), the “dose-dependent thermal stabilisation call” value is inactive: 0.

As for ND1 (UniProt P03886), the “dose-dependent thermal stabilisation call” value is inactive: 0.

With NIP30 (UniProt Q9GZU8), the “dose-dependent thermal stabilisation call” value is inactive: 0.

For the target NARG1 (UniProt Q9BXJ9), the “dose-dependent thermal stabilisation call” value is inactive: 0.

On to NPTN (UniProt Q9Y639), for which the “dose-dependent thermal stabilisation call” value was inactive: 0.

With NDUFA7 (UniProt O95182), the “dose-dependent thermal stabilisation call” value is inactive: 0.

In the case of ND3 (UniProt P03897), the “dose-dependent thermal stabilisation call” value was inactive: 0.

As to NIF3L1 (UniProt Q9GZT8), the “dose-dependent thermal stabilisation call” value was inactive: 0.

Turning to NDUFA8 (UniProt P51970), the “dose-dependent thermal stabilisation call” value was inactive: 0.
